## Percent effect of library compounds

Protein sequences, listed by entry. Tags and fused reporters are not part of them.
UniProt P9WFT3, whole entry: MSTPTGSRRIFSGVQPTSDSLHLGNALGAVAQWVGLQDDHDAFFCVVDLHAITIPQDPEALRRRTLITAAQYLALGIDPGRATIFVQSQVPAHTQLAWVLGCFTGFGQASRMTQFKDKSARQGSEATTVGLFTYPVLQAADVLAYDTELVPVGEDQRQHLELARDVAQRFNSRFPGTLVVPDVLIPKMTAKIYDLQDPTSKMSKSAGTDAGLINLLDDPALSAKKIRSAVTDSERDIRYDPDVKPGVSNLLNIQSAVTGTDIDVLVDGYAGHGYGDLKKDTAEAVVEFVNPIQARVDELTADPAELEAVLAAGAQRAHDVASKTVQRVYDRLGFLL
UniProt P9WNZ1, whole entry: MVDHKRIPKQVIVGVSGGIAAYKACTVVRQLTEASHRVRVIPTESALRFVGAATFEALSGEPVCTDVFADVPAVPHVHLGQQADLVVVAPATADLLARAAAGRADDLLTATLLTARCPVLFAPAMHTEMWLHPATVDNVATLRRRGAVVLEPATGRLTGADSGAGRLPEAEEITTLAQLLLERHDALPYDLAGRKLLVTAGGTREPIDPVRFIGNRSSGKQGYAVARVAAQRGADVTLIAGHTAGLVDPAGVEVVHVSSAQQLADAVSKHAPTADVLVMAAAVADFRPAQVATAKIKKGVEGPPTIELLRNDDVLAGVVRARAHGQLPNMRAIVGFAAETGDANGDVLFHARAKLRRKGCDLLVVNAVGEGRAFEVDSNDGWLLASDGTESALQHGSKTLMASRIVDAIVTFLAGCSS
UniProt P9WPC5, whole entry: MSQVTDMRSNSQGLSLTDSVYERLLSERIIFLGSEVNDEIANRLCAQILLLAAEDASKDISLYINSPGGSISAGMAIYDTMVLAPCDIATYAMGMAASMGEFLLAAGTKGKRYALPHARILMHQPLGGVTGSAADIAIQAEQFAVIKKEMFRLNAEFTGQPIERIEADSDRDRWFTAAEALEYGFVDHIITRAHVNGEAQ
UniProt P9WPC3, whole entry partner: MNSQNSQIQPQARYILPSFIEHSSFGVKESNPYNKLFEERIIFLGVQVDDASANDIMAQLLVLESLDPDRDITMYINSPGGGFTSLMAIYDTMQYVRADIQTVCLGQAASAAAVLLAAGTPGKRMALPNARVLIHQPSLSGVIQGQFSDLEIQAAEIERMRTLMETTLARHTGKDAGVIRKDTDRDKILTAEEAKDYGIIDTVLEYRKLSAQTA

Data taken from ChEMBL document CHEMBL3988442, “University of Dundee, Small-Polar-MMV Screening Library” (2021).

MtTrpRS: 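Tryptophan-tRNA ligase, Mycobacterium tuberculosis (UniProt P9WFT3). Enzyme assay of tryptophanyl-tRNA synthetase; the read-out is not stated. Concentration: 10 µM. Higher most likely means stronger inhibition; the record gives no direction and few retests gave an IC50. Size under these conditions: about 65,000 compounds, about 64 of them at 50% or above in at least one test.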
CoaBC: 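Coenzyme A biosynthesis protein CoaBC, Mycobacterium tuberculosis (UniProt P9WNZ1). Enzyme assay of CoaBC with a phosphate dye (Biomol Green) read at 650 nm. Tested at 30 µM. Higher reads as stronger inhibition, judged from the few compounds that gave an IC50. Most strong results did not repeat in a second test. Size under these conditions: about 67,000 compounds, about 40 of them at 50% or above in at least one test.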
ClpP1P2: 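ClpP1P2, Mycobacterium tuberculosis (UniProt P9WPC5 and UniProt P9WPC3). Protease assay of ClpP1P2, read by the AMC dye that it sets free. Concentration: 50 µM. Higher reads as stronger inhibition, judged from the few compounds that gave an IC50. Most other retested compounds had strongly negative values. Size under these conditions: about 69,000 compounds, about 10 of them at 50% or above in at least one test.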

Results are given as percent effect. The controls that fix the scale are not given in the record; negative values are as filed. Compounds were drawn at random from those tested, without regard to their results. A dash means the value is not listed here; it may have been measured.

| compound | MtTrpRS | CoaBC | ClpP1P2 |
|---|---|---|---|
| `Cc1ccc(CC(=O)N2CCc3nnc(N(C)C)cc3C2)cn1` | -0.07424 | 13.73 | 26.36 |
| `O=C(Cn1ccc2c(Cl)cccc21)N1CCC2(CC1)OCCO2` | 2.924 | 5.263 | 6.588 |
| `COCCN1C(=O)[C@H]2CC[C@@H]1CN(S(=O)(=O)c1cccc(Cl)c1)C2` | -5.034 | 2.39 | 5.753 |
| `CCc1nc(NS(=O)(=O)c2cc(C)cc(F)c2)no1` | -1.095 | -2.622 | -14.37 |
| `Cc1cccc(CN2CCCC3(CCC(=O)N3CCN(C)C)CC2)n1` (stereo not drawn) | -3.483 | 5.176 | 7.004 |
| `O=C(c1ccc(S(=O)(=O)N2CCSCC2)cc1)N1CCC(O)C1` (stereo not drawn) | -1.232 | -2.123 | 2.166 |
| `CN(C)c1cc(C2CCCN(S(=O)(=O)c3cn(C)cn3)C2)ccn1` (stereo not drawn) | -7.686 | -0.3708 | -24.82 |
| `O=C(c1ccc(Cl)c(Cl)c1)N1CCCCC1C1OCCO1` (stereo not drawn) | -1.971 | 1.768 | 0.8317 |
| `CC(C)N1CCCCC1c1cncc(Cl)n1` (stereo not drawn) | 14.79 | -3.154 | 12.47 |
| `COCCCN(CCOC)C(=O)Nc1ccccc1Br` | -1.377 | 3.374 | -8.722 |
| `Cc1nccc(-c2cccc(NCc3nc(C(C)C)no3)c2)n1` | -3.653 | 10.58 | 6.228 |
| `CCNc1ncc(C(=O)NCCc2csc(CSC)n2)cn1` | -9.818 | -4.106 | -0.6435 |
| `Cc1ncnc2c1CCN(C(=O)c1cccn1C)CC2` | -5.08 | -3.585 | -5.411 |
| `CC(C)[C@@H]1CN(c2ccc(F)cn2)C[C@H]1NS(C)(=O)=O` | 3.043 | 1.595 | 8.127 |
| `Cc1nc(CN2CCCC(N(C)Cc3c(C)noc3C)C2)no1` (stereo not drawn) | 1.798 | -6.154 | -8.291 |
| `O=C([C@H]1C[C@H]2OCC[C@H]2N(CC2CC2)C1)N1CCCC1` | -3.171 | 10.36 | 1.309 |
| `O=C(NC1(c2cccc(F)c2)CCOCC1)c1ccccn1` | -2.403 | -0.4545 | -18.59 |
| `CC(C)(C)OC(=O)N1CCC(NCc2cnn(C(C)(C)C)c2)CC1` | 1.514 | - | 9.119 |
| `COc1ccc(CNC(Cn2cncn2)c2ccccc2)cc1O` (stereo not drawn) | -2.082 | 2.727 | -1.08 |
| `CC(C)c1nc(C2CCCN(C(=O)CN(C)S(C)(=O)=O)C2)no1` (stereo not drawn) | 0.07788 | 2.532 | -3.156 |
| `Cc1ccc(CCCC(=O)N2CC(=O)Nc3cccnc32)s1` | 2.542 | 5.109 | -12.74 |
| `CCOc1ncccc1CNC(=O)Nc1ccc(CC)cc1` | -5.946 | 4.062 | -13.44 |
| `CC(C)CC(C)N(C)Cc1nnc(-c2ccco2)o1` (stereo not drawn) | -2.72 | 0.8526 | 11.14 |
| `O=C(Nc1ccc2occc2c1)N1CCCC(O)(CO)CC1` (stereo not drawn) | 0.4724 | -1.279 | -8.074 |
| `Cc1nc(-c2ccccc2C)n(CC(=O)NC(C)C)n1` | 7.149 | -6.667 | 3.603 |
| `Cc1ccc(C(=O)OC(C)Cn2cccn2)c(=O)[nH]1` (stereo not drawn) | 3.003 | -9.639 | -4.238 |
| `CC(=O)N(C)CC(=O)NCC1(c2c(F)cccc2F)CCCC1` | 2.832 | 6.112 | 1.368 |
| `CN(C)[C@H]1CN(C(=O)CCc2cccc(F)c2)C[C@@H]1C1CC1` | -3.865 | 2.814 | -29.23 |
| `NC1CCc2nc(-c3ccncc3)nc(Nc3cccc(F)c3)c2C1` (stereo not drawn) | 15.34 | -12.83 | -4.081 |
| `CCn1ccc(C(=O)N2CCOC(c3nc(-c4cccs4)no3)C2)n1` (stereo not drawn) | - | -0.4854 | -8.13 |
| `CCOc1ccccc1Nc1nc2c(C)nn(C)c2c(=O)n1C` | -2.071 | 8.182 | 4.403 |
| `O=C(N1CCCC1)N1CCc2ncnc(C3CCOC3)c2CC1` (stereo not drawn) | 4.053 | -7.772 | -0.4434 |
| `COCCCS(=O)(=O)N1CCN(C(C)(C)CO)CC1` | 1.06 | -3.803 | 3.961 |
| `NC(=O)C(NCc1ccc(Cl)s1)c1ccccc1` (stereo not drawn) | -3.398 | 0.9569 | 1.418 |
| `CCN1CCCC12CCN(C(=O)c1nccn1C)CC2` | -4.161 | 4.167 | -2.585 |
| `OC1(CN2CCCCC2)CCN(Cc2c[nH]c(CC3CCCC3)n2)C1` (stereo not drawn) | -0.3096 | - | 1.477 |
| `c1ccc(-c2n[nH]c(CCNc3nnc(C4CCC4)o3)n2)cc1` | 0.9449 | 0.7673 | -22.22 |
| `O=C(O)[C@@H]1CN(C(=O)CCc2ccccn2)C[C@H]1c1ccccc1` | -1.064 | 8.264 | -12.19 |
| `COc1cccc(CN(Cc2ccco2)Cc2cnc(C)n2C)c1` | -0.5028 | -3.881 | -17.21 |
| `CCn1cnnc1CCNC(=O)CCNC(=O)c1ccccc1F` | 1.724 | 6.02 | -0.9809 |
| `CN(C)CCN1CCCC12CCN(C(=O)c1ccco1)CC2` | -2.819 | 3.059 | -8.55 |
| `COc1ccc(C(=O)N2CCCCC2c2nccs2)c(OC)c1` (stereo not drawn) | -1.412 | -1.979 | -24.98 |
| `O=C(NCCn1ccnc1)N1CCN(Cc2ccco2)CC1` | 34.37 | 0.2389 | 7.422 |
| `CCN(CC)C(=O)C1CCN(C(=O)Nc2cccnc2OC)CC1` | -0.6255 | -2.372 | -3.861 |
| `CNC(=O)CCCNCc1c(C)nn(C)c1N(C)C` | -5.419 | -4.922 | 10.79 |
| `O=C(Nc1ccccc1)C1CN(Cc2nccs2)CC12CCOCC2` (stereo not drawn) | -2.008 | 0.4894 | 9.141 |
| `CCN(Cc1cccnc1)CC1CCCO1` (stereo not drawn) | 1.639 | -3.198 | -15.1 |
| `O=C(Cn1nc2c(cc1=O)CCCC2)NC(C(=O)O)c1ccccc1` (stereo not drawn) | 0.7779 | -4.211 | -2.311 |
| `CCn1ccnc1CN1CCCN(CC2CC2)C(C(C)C)C1` (stereo not drawn) | -0.8396 | -16.2 | -0.4475 |
| `CN(C)Cc1nn(C)c2c1CCN(C(=O)c1cnccn1)C2` | 8.186 | 5.011 | 0.7811 |
| `Cc1cc(C)cc(NC(=O)CN2CCCC(n3cncn3)C2)c1` (stereo not drawn) | -8.066 | 8.094 | 8 |
| `CC(C)NS(=O)(=O)c1cc(C(=O)O)cc(-c2ccc3c(c2)OCCO3)c1` | 8.003 | -2.314 | 7.646 |
| `CN(C)C1COC2(CCN(Cc3ccncc3)CC2)C1` (stereo not drawn) | -7.672 | 4.622 | -3.617 |
| `Cc1ncsc1C(=O)Nc1cccc(OCC(F)F)n1` | -7.097 | 2.024 | 4.793 |
| `O=C(NCCNc1ncccn1)NCCSC(F)(F)F` | -1.652 | 13.49 | 8.739 |
| `Cc1cnc(C(=O)N(CCN(C)C)Cc2ccc(Cl)cc2)cn1` | 1.896 | -23.21 | -3.66 |
| `Cc1nn(C(=O)c2cccnc2)c(C)c1C` | 9.33 | 2.503 | 22.11 |
| `O=C(N[C@H]1CC[C@H](O)CC1)c1ccc2nc(-c3ccc(F)cc3)cn2c1` | 2.004 | 1.827 | -0.3331 |
| `COc1ccc(CC(=O)N2CCCCC2Cn2cccn2)cc1` (stereo not drawn) | -0.7523 | 2.611 | -32.7 |
| `COCCN(Cc1ccccc1Cl)C(=O)c1c(C)cc(C)[nH]c1=O` | -2.457 | 6.407 | -3.835 |
| `CC1=N[C@@]2(CC[C@@H]3CN(C(=O)NCCc4ccccc4)C[C@@H]32)C(=O)N1` | 3.285 | -4.665 | 6.142 |
| `Cc1[nH]/c(=N/C(=O)Cn2nc(N3CCOCC3)ccc2=O)sc1C` | -3.541 | -7.311 | -5.478 |
| `Brc1ccc(NCc2ccc(Cn3ccnc3)cc2)nc1` | 2.957 | -0.9346 | -28.28 |

Some entries from above, unchanged:

O=C(c1ccc(S(=O)(=O)N2CCSCC2)cc1)N1CCC(O)C1 (stereo not drawn) gave MtTrpRS: -1.232%; CoaBC: -2.123%; ClpP1P2: 2.166%.
Brc1ccc(NCc2ccc(Cn3ccnc3)cc2)nc1 gave MtTrpRS: 2.957%; CoaBC: -0.9346%; ClpP1P2: -28.28%.
Cc1ccc(CCCC(=O)N2CC(=O)Nc3cccnc32)s1 gave MtTrpRS: 2.542%; CoaBC: 5.109%; ClpP1P2: -12.74%.
Cc1cc(C)cc(NC(=O)CN2CCCC(n3cncn3)C2)c1 (stereo not drawn) gave MtTrpRS: -8.066%; CoaBC: 8.094%; ClpP1P2: 8%.
O=C(N[C@H]1CC[C@H](O)CC1)c1ccc2nc(-c3ccc(F)cc3)cn2c1 gave MtTrpRS: 2.004%; CoaBC: 1.827%; ClpP1P2: -0.3331%.
COc1ccc(CC(=O)N2CCCCC2Cn2cccn2)cc1 (stereo not drawn) gave MtTrpRS: -0.7523%; CoaBC: 2.611%; ClpP1P2: -32.7%.
COc1ccc(CNC(Cn2cncn2)c2ccccc2)cc1O (stereo not drawn) gave MtTrpRS: -2.082%; CoaBC: 2.727%; ClpP1P2: -1.08%.
Cc1ncsc1C(=O)Nc1cccc(OCC(F)F)n1 gave MtTrpRS: -7.097%; CoaBC: 2.024%; ClpP1P2: 4.793%.